# Source: PubChem BioAssay AID743255 (National Center for Advancing Translational Sciences (NCATS), 2014)
# Protein sequences, listed by entry. Tags and fused reporters are not part of them. Lines headed by an entry give the natural chain unless they say otherwise; changes in a name come on top.
# UniProt O94782: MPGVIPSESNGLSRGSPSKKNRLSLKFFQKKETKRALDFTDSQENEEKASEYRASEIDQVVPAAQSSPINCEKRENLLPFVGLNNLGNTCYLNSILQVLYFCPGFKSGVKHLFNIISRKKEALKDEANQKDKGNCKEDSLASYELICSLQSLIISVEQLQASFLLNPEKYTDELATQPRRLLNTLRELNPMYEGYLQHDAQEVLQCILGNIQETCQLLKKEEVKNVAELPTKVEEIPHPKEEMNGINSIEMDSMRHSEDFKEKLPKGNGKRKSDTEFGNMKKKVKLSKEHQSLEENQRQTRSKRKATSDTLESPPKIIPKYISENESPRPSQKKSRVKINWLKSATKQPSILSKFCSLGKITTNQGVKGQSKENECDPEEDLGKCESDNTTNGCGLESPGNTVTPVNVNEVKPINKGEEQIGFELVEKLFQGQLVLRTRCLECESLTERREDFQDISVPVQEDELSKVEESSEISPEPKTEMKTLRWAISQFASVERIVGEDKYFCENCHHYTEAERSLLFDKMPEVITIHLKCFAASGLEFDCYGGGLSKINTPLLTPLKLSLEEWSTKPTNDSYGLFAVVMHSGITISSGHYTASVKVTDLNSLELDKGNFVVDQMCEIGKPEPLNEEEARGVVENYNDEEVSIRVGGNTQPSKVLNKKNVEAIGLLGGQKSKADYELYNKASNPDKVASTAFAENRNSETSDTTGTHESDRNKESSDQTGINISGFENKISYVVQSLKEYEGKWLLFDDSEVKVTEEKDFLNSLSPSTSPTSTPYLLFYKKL
# Out of some 390,000 compounds screened, about 910 (0.23%) were called active. Inconclusive means that the source gave no clear call. Such entries were picked first, then a sample of the others. Calls follow the shape of the dose curve; as a rule, active = well fitted inhibition curve with a large enough effect; inconclusive = small, poorly fitted or top-dose-only effect; inactive = no such curve, though single readings can be large or run the other way. Potencies of inconclusive entries are doubtful fits and often do not repeat. Starred links: 1 amine or outer side, 2 acyl side, 3 side chain; linkers in the order of their positions; H or OH if unused. Non-standard residues stand in square brackets, D forms with d. Residues, ends and D or L forms follow the SMILES beside them. ξ: configuration not given here. X1 = CCCCCCC[C@H](O)C[C@@H](N[*:1])[C@@H](O)C(=O)[*:2]; X3 = COc1ccc(CCCC(N[*:1])C(=O)[*:2])cc1; ξThr(3R) = C[C@@H](O)C(N)C(=O)O; NMeN = CN[C@@H](CC(N)=O)C(=O)O; X2 = C/C=C(/N[*:1])C(=O)[*:2]; Dhb = C/C=C(\N)C(=O)O; Sar = CNCC(=O)O
# Target: Ubiquitin carboxyl-terminal hydrolase 1 (Homo sapiens) (UniProt O94782)
# Test: Inhibitors of USP1/UAF1: Primary Screen; also: nearly all actives have a fitted effect of over 60% in size
# Conditions: recombinant USP1/UAF1, Ub-Rhodamine cleavage fluorescence; activity change, negative = inhibition: at 57.1 µM (top of the series)
# Outline: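 High-throughput fluorogenic screen: 1nM USP1/UAF1 complex, Ub-Rho substrate 150nM final, 50mM HEPES pH 7.8 with 0.5mM EDTA, 0.1 mg/ml BSA, 1mM TCEP and 0.01% Tween-20.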
# % is scaled to controls: 0 for no effect and ±100 for the full control effect; potency is read from the fitted curve at half-maximal effect.
SMILES,Potency,"activity change, negative = inhibition"
C[C@H](CO)N1C[C@H](C)[C@@H](CN(C)C(=O)Nc2ccccc2)Oc2ccc(NC(=O)NC3CCCCC3)cc2C1=O,"inconclusive: 44.7 µM [inhibitor, partial curve, poor fit]",–
COc1ccc(NC(=O)CCn2c(=S)[nH]c3ccccc3c2=O)cc1Cl,"inconclusive: 44.7 µM [inhibitor, partial curve]",–
COc1ccc(CN(C)C(=O)C2CC(=O)N(c3ccc4c(c3)OCCO4)C2)c(OC)c1 (stereo not drawn),–,inactive: -4.5%
Cc1nn(CC(=O)NCC2CCCO2)c(C)c1[N+](=O)[O-] (stereo not drawn),"inconclusive: 8.91 µM [inhibitor, partial curve]",–
Cc1noc(C)c1S(=O)(=O)N1CCC(C(=O)N2CCN(c3cccc(C(F)(F)F)c3)CC2)CC1,"inconclusive: 7.08 µM [inhibitor, single point]",–
O=C(Cc1nc2ccccc2[nH]c1=O)c1ccccc1,active: 31.6 µM,–
CCOC(=O)c1c(C)nn(-c2ccc(NC(=O)/C=C/C(=O)O)cc2)c1C,–,inactive: -22%
Cc1cccc(-c2nnc(NC(=O)c3cccs3)s2)c1,–,inactive: -22.9%
CC(C)c1ccc(OCC(=O)Nc2cccc3c2CCCC3)cc1,"inconclusive: 31.6 µM [inhibitor, partial curve]",–
CC(C)NC1(C(N)=O)CCNCC1,"inconclusive: 44.7 µM [inhibitor, partial curve, poor fit]",–
CCOC(=O)/C=C(C)\C=C\c1c[nH]c2ccccc12,–,inactive: 4.33%
CC(C)Oc1ccc(-c2nc3c(C#N)c[nH]n3c2NC2CCCCC2)cc1,"inconclusive: 39.8 µM [inhibitor, single point]",–
O=C(COc1ccc(Cl)cc1)NCc1nnc(SCC(=O)NC2CCCCC2)o1,–,inactive: -10.7%
C[C@H](CO)N1C[C@H](C)[C@@H](CN(C)C(=O)c2ccccn2)Oc2cc(Br)ccc2S1(=O)=O,"inconclusive: 100 µM [inhibitor, partial curve, poor fit]",–
Cc1ccccc1C(=O)n1nc(-c2cccnc2)nc1NCc1ccccc1,"inconclusive: 10 µM [inhibitor, partial curve, poor fit]",–
CCSc1nnc(NC(=O)CSc2sc3c(O)cc(=O)[nH]c3c2C#N)s1,–,inactive: 2.04%
C/C=C1\NC(=O)[C@H](CC(N)=O)N(C)C(=O)C([C@@H](C)O)NC(=O)C(CCCc2ccc(OC)cc2)NC(=O)[C@H](C(C)C)NC(=O)/C(=C\C)NC(=O)[C@H](O)[C@@H](C[C@@H](O)CCCCCCC)NC(=O)[C@H](C)NC(=O)CN(C)C(=O)[C@H](CCC(N)=O)NC1=O (stereo partly drawn) (cyclo(A[X1][X2]V[X3][ξThr(3R)][NMeN][Dhb]Q[Sar])),"inconclusive: 39.8 µM [inhibitor, partial curve, poor fit]",–
COc1ccc(-c2cc3nc(C)c(CCC(=O)NC4CCCCC4)c(C)n3n2)c(OC)c1,"inconclusive: 3.16 µM [inhibitor, full curve, poor fit]",–
Cc1cccc(C)c1NC(=O)c1sc(-n2nc(C)c(Cc3ccccc3)c2C)nc1C,"inconclusive: 1.12 µM [inhibitor, full curve, poor fit]",–

# Fetched by compound from above (3):
SMILES,Potency,"activity change, negative = inhibition"
CCSc1nnc(NC(=O)CSc2sc3c(O)cc(=O)[nH]c3c2C#N)s1,–,inactive: 2.04%
CCOC(=O)/C=C(C)\C=C\c1c[nH]c2ccccc12,–,inactive: 4.33%
COc1ccc(-c2cc3nc(C)c(CCC(=O)NC4CCCCC4)c(C)n3n2)c(OC)c1,"inconclusive: 3.16 µM [inhibitor, full curve, poor fit]",–

# (more compounds)

SMILES,Potency,"activity change, negative = inhibition"
O=C(O)CN1C(=O)/C(=C/c2ccc(N3CCCCC3)o2)SC1=S,"inconclusive: 28.2 µM [inhibitor, partial curve]",–
Cc1cccc(CCNC(=O)c2cccc3c2C(=O)N(C2CCCCC2)C3)c1,–,inactive: -30.4%
COc1ccc(Cn2c(=O)c3cccnc3n(Cc3cccc(F)c3)c2=O)cc1,"inconclusive: 44.7 µM [inhibitor, partial curve, poor fit]",–
CCN1C(=O)C2(C(C#N)=C(N)Oc3c2c(C)nn3-c2ccccc2)c2ccccc21 (stereo not drawn),–,inactive: -15.5%
O=C(O)C1CCCN(S(=O)(=O)c2ccccc2)C1 (stereo not drawn),"inconclusive: 2.24 µM [inhibitor, partial curve]",–
CCOC(=O)C1=C(C)c2ccccc2OC1(CC)C(=O)OCC (stereo not drawn),"inconclusive: 79.4 µM [inhibitor, partial curve, poor fit]",–
O=C(NCCNC(=O)c1ccc(-c2ccc(Cl)c(Cl)c2)o1)c1cnccn1,"inconclusive: 0.251 µM [inhibitor, full curve, poor fit]",–
CCCCN1C[C@H](C)[C@@H](CC(=O)Nc2ccc(OC)cc2)C1=O,"inconclusive: 0.251 µM [inhibitor, full curve]",–
COc1cc2c(cc1OC)CN(CC(O)c1ccccc1)CC2 (stereo not drawn),"inconclusive: 15.8 µM [inhibitor, partial curve]",–
CC(/C=C1\SC(=S)N(NS(=O)(=O)c2ccc(C)cc2)C1=O)=C\c1ccccc1,"inconclusive: 44.7 µM [inhibitor, partial curve, poor fit]",–
Cc1cc(C)cc(C(=O)NCC(=O)NCc2ccc(S(N)(=O)=O)cc2)c1,"inconclusive: 15.8 µM [inhibitor, partial curve, poor fit]",–
CC/C(=N/Nc1ccccc1)c1cnnc(SC)n1,"inconclusive: 44.7 µM [inhibitor, partial curve]",–
CCCCn1cc(S(=O)(=O)c2ccc(C)c(C)c2)c(=O)c2cc(F)c(N(CC)CC)cc21,"inconclusive: 0.708 µM [inhibitor, full curve, poor fit]",–
Nc1c(C(=O)O)cnn1-c1ccccc1,"inconclusive: 0.251 µM [inhibitor, full curve, poor fit]",–
CCn1nc(-c2ccccc2)c(-c2ccccc2)c(C(=O)Nc2nc(C)c(C(C)=O)s2)c1=O,"inconclusive: 3.55 µM [inhibitor, partial curve]",–
COc1ccc(CCNC(=O)CN2CCN(Cc3ccc(F)cc3)C2=O)cc1OC,"inconclusive: 5.01 µM [inhibitor, partial curve]",–
CC(C)N(Cc1ccccc1)C(=O)C1CCCN(c2ncnc3onc(-c4ccc(F)cc4)c23)C1 (stereo not drawn),"inconclusive: 39.8 µM [inhibitor, partial curve, poor fit]",–
Cc1nn(S(=O)(=O)c2ccc(C(C)(C)C)cc2)c(C)c1S(=O)(=O)N1CCC(C)CC1,–,inactive: -12.6%
COc1ccnc(Oc2cccc(C(F)(F)F)c2)c1C(=O)N/C=N/OCc1ccccc1F,"inconclusive: 7.94 µM [inhibitor, single point]",–
